Screening data, single-dose tests

Source: ChEMBL document CHEMBL3988442, “University of Dundee, Small-Polar-MMV Screening Library” (2021).

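Whole-parasite assay of Trypanosoma brucei over 72 hours; the read-out is not stated. Compounds at 30 µM. Higher reads as stronger inhibition (inferred: compounds with an IC50 in retests scored well above the rest). Values scatter widely below zero; nearly all retest evidence comes from the higher of the two concentrations used. Size under these conditions: about 64,000 compounds, about 940 of them at 50% or above in at least one test.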

The filed quantity is “Percent Effect” (%). How 0% and 100% were set is not recorded. Most values in the screen are low, and negative values occur. Compounds were drawn at random from those tested, without regard to their results.

structure | Percent Effect
O=C(C1SCCc2ccccc21)N1CCC(O)CC1 (centres undefined) | 0.3645%
CC(c1cccnc1)N1CCN(CCc2ccccn2)CC1 (centres undefined) | 11.63%
COc1cc(N(C)Cc2cc(C(C)(C)C)n[nH]2)ncn1 | -59.81%
Cc1cc(C2CCCN(Cc3ncc(C)o3)C2)n[nH]1 (centres undefined) | -23%
COc1cc(N2CC[C@@H](O)[C@@H]2Cc2ccncc2)ncn1.O=C(O)C(F)(F)F | 35.07%
Cc1nc(C)n(CC2CN(Cc3cccs3)Cc3nccn3C2)n1.O=C(O)C(F)(F)F (centres undefined) | -237.6%
Cc1n[nH]c(CCC(=O)N2CCOC(Cc3ccccc3)C2)c1C (centres undefined) | -7.665%
Cc1n[nH]c(C)c1-c1nccnc1CC1CCN(C(C)C)CC1 | -18.72%
c1cc(CCN2CCC(c3n[nH]c(C4CC4)n3)CC2)ccn1 | -13.45%
CNC(=O)C1CCC2(CCN(c3nncs3)CC2)CO1.O=C(O)C(F)(F)F (centres undefined) | -4.542%
O=C(c1ccc2[nH]ccc2c1)N1CCCCC1c1nc[nH]n1 (centres undefined) | 2.327%
CCNC(=O)[C@@H]1C[C@@H](NC(=O)c2cnc[nH]c2=O)CN1Cc1ccsc1 | 8.635%
COc1ccccc1CN(CCCn1ccnc1)CC1CCOC1.O=C(O)CC(O)(CC(=O)O)C(=O)O (centres undefined) | -6.012%
CC(C)C(Nc1nc(C(F)(F)F)nc2ccccc12)C(=O)O (centres undefined) | -24.84%
Cc1ccc(C)c(CC(=O)Nc2cccc(C(=O)N(C)C)n2)c1 | -80.78%
Cc1ccccc1C(C(=O)N(C)Cc1cnn(C)c1)N(C)C (centres undefined) | -20.08%
Cc1ncccc1C(=O)Nc1cccc(Cn2ccccc2=O)c1 | -6.599%
O=C(O)C(F)(F)F.O=C(O)C(F)(F)F.c1cnc(N2CCC3(CCN(CC4CCOC4)CC3)CC2)nc1 (centres undefined) | -26.62%
O=C(CSCC1CC1)N1CCCC(c2nccn2Cc2ccccn2)C1 (centres undefined) | -37.19%
O=C1CN(CCCNC(=O)Nc2ccccn2)CCN1 | -17.87%
CN1CCC(C(=O)N2CCCN(c3cccnn3)CC2)C1 (centres undefined) | -38.94%
CC(C)(C)c1cc(=O)[nH]c(C2(N)CCCC2)n1 | -60.94%
CC(C)c1nc(C2CCCN2C(=O)c2ccc3nncn3c2)no1 (centres undefined) | -23.8%
CC(O)CN1CCC(CN(C)Cc2ccc(C#N)cc2)CC1 (centres undefined) | -25.94%
O=C(O)C(F)(F)F.O=C(O)C(F)(F)F.[H][C@@]12C[C@@H](Oc3ccc(C)cc3)CN1CCN(Cc1nccn1C)C2 | -3.571%
COCCC(=O)N1CCOCC(Cc2ccc3c(ccn3C)c2)C1 (centres undefined) | -7.971%
CCn1cc(-c2cc(C(F)(F)F)nc(NC3CCCC3)n2)c(C)n1 | -31.89%
Cc1cnn(Cc2ccc(NC(=O)N[C@@H]3C=C[C@H](CO)C3)cc2)c1 | 3.459%
COC(=O)[C@@H]1C[C@@H](O)CN1Cc1ccn(-c2ccc(F)cc2)n1 | -44.01%
CC(c1ncc(-c2ccccc2)o1)N1CCN(C(=O)C(C)(C)C)CC1 (centres undefined) | 32.74%
COc1ccccc1Oc1cncc(C2CCCN(C)C2)n1 (centres undefined) | -17.45%
COC(=O)CC(c1ccc(OC)c(OC)c1)c1oc(C)cc(=O)c1O (centres undefined) | -0.6304%
CCOC(=O)Cn1ccc2cc(NC(=O)N3CCSCC3)ccc21 | -35.58%
Cc1nonc1NC(=O)CCn1cc(Br)ccc1=O | -25.33%
Cc1cc(C)nc(N2CCCC2c2cccnc2)n1 (centres undefined) | -78.59%
CC(C)N1CCc2ncn(C(C)C)c2C1C(=O)NCCN1CCCC1 (centres undefined) | -55.75%
O=C(NCc1ccc(-n2cncn2)nc1)c1ccc2c(c1)CCC2 | -20.61%
NS(=O)(=O)c1ccc(CNCC(=O)NCc2ccc(Cl)cc2Cl)cc1 | -19.64%
CC(Cn1ccnc1)NC(=O)N1CCN(Cc2ccsc2)CC1 (centres undefined) | 7.976%
O=C(O)c1ccccc1-n1cnc(CN2CCCCCC2)c1 | -2.624%
c1ccc(-c2nc(CNC3CCc4ncnn4C3)co2)cc1 (centres undefined) | 29.81%
Cc1ccc(NC(=O)C2CSCN2C(=O)c2cccnc2)c(C)c1 (centres undefined) | -11.76%
CC(C)n1cccc1C(=O)N1CC[C@@H](NC(=O)c2ccccn2)[C@H](O)C1 | 6.445%
O=S(=O)(Cc1ccc(F)cc1)NCCc1nnc2n1CCC2 | -13.44%
COc1c(CNCc2ccc(OCC(N)=O)cc2)c(C)nn1C | -3.613%
CC(=O)NCC1CCN(C(=O)NCCOc2ccc3c(c2)CCC3)CC1 | 2.761%
Cc1cc2c(cc1C)C(NCc1nnc3n1CCCCC3)CCCO2 (centres undefined) | -24.77%
CN(C)Cc1nc(C(C)(C)NC(=O)C2CC(=O)N(CC3CC3)C2)no1 (centres undefined) | -45.27%
O=C(NC1CCCNC1)c1cc(COc2cccc(C(F)(F)F)c2)[nH]n1 (centres undefined) | -15.53%
O=C(CCc1ccccc1)C1CCCN(Cc2cncn2C2CC2)C1 (centres undefined) | -9.267%
O=c1c2cccc(C(F)(F)F)c2ncn1CCN1CCNCC1 | -42.44%
CC(c1nc(C(C)(C)C)no1)N1CCN(Cc2ccco2)CC1 (centres undefined) | 14.34%
CCc1ccccc1OC1CN(C(=O)CN(C)Cc2ccncc2)C1 | -6.561%
Cc1cc(C(F)(F)F)nn1CCNC(=O)C(C)n1ccnc1C(C)C (centres undefined) | -82.41%
CN(C)c1ccc(C(=O)N2CCCC(n3cncn3)C2)nn1 (centres undefined) | -8.641%
Cc1noc(C(C)C)c1C(=O)NCC1CCCN1Cc1ccccc1 (centres undefined) | -34.12%
CC(C)c1nc(C2CCCN2Cc2nccn2CC(F)(F)F)no1 (centres undefined) | 9.965%
CCC(C)(C)NC(=O)Nc1nnc(-c2ccccn2)s1 | -2.872%
OCC(O)CSCc1nnc(-c2ccc(Cl)cc2)o1 (centres undefined) | -30.58%

5 of the entries, repeated:

| structure | Percent Effect |
|---|---|
| `CC(C)c1nc(C2CCCN2C(=O)c2ccc3nncn3c2)no1` (centres undefined) | -23.8% |
| `CNC(=O)C1CCC2(CCN(c3nncs3)CC2)CO1.O=C(O)C(F)(F)F` (centres undefined) | -4.542% |
| `COc1ccccc1Oc1cncc(C2CCCN(C)C2)n1` (centres undefined) | -17.45% |
| `c1ccc(-c2nc(CNC3CCc4ncnn4C3)co2)cc1` (centres undefined) | 29.81% |
| `COC(=O)CC(c1ccc(OC)c(OC)c1)c1oc(C)cc(=O)c1O` (centres undefined) | -0.6304% |